# Laboratory results taken from article PMC11220795 (Molecular Pharmaceutics, 2024).
# Assay: Drug solubility in medium-chain triglycerides (MCT, Miglyol 812 N); SORESOS 96-well assay, miniaturized shake-flask or literature
# Conditions: decadic logarithm of molar solubility in MCTs (Miglyol 812 N), 24 h at room temperature; no literature source given
# Procedure: The excipient complies with the quality specifications of the European Pharmacopoeia. The solvents used for the ultra-performance liquid chromatography (UPLC) quantification were of UPLC grade.
# (b) employing a miniaturized version of the shake-flask method in 2 mL glass vials,[33] or (c) collecting data from the literature.[12],[34] Each of the employed assays involved residual solid-state screenings by powder X-ray diffraction to identify potential solid-state changes during solubility screenings.
structure (smiles),measurement,value
COc1cc2c(cc1OC)C(=O)C(CC1CCN(Cc3ccccc3)CC1)C2 (stereo not shown) [donepezil],log10 S [M],-1.11 M
